Here are results for one substance from article PMC10449921.

Protein sequences, listed by entry. Tags and fused reporters are not part of them. Lines headed by an entry give the natural chain unless they say otherwise; changes in a name come on top.
UniProt P06493: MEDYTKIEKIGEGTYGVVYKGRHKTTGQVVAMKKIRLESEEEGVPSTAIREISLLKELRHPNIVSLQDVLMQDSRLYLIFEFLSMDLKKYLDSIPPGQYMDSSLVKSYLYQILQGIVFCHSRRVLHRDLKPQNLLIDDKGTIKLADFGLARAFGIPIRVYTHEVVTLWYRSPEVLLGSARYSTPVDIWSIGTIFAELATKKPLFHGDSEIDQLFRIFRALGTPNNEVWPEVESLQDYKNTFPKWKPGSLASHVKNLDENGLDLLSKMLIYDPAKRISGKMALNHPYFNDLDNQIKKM
UniProt P50613: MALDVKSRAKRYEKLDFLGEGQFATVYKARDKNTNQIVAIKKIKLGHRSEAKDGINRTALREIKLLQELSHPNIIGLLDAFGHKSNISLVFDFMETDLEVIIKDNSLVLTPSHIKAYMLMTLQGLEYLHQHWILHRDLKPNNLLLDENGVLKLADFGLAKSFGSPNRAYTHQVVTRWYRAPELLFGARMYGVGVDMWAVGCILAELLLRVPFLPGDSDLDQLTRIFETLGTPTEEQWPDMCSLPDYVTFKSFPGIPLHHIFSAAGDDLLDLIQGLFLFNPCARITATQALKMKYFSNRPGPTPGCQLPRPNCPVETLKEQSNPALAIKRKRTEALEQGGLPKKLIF

The assay deals with CDK1 (human (endogenous in PC9 and H358)) (UniProt P06493). The assay is described as follows: co-IP; endogenous proteins from lysates of LUAD cells (PC9, H358), with or without LINC00880 overexpression; Pierce Classic Magnetic IP/Co-IP Kit, western blotting. (Immunoblotting shows a protein as a band on a membrane.)

Results are given in words; binding and its absence hold for the method and conditions named. In cells and extracts the contact can be indirect. Some entries that bind do so weakly or less than the wild type.

In the case of “CDK-activating kinases (CAKs), including CDK7, MNAT1, and cyclin H (from UniProt P50613 1-346; P51948 1-309; P51946 1-323) (complex)”, the binding result is reported as “binds”.
